From the supplement of paper PMC12067093, “Discovery and optimisation of a covalent ligand for TRIM25 and its application to targeted protein ubiquitination” (Chemical Science, 2025)
This is one part of the list.

Protein sequences, listed by entry. Tags and fused reporters are not part of them. Lines headed by an entry give the natural chain unless they say otherwise; changes in a name come on top.
UniProt P50995, whole entry, looked up: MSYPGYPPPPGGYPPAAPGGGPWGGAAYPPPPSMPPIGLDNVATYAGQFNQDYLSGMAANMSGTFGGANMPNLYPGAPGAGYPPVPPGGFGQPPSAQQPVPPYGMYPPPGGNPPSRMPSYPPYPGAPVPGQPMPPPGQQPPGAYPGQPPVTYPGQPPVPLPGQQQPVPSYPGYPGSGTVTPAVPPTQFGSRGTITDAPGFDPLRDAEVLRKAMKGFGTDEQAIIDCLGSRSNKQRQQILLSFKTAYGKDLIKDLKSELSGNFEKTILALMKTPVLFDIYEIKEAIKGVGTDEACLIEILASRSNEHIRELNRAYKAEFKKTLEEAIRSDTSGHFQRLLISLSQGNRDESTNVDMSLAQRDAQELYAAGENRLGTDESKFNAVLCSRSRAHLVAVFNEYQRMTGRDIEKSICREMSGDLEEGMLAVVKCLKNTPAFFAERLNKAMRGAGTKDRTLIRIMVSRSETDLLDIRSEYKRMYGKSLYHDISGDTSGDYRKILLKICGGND
UniProt Q6P6B7: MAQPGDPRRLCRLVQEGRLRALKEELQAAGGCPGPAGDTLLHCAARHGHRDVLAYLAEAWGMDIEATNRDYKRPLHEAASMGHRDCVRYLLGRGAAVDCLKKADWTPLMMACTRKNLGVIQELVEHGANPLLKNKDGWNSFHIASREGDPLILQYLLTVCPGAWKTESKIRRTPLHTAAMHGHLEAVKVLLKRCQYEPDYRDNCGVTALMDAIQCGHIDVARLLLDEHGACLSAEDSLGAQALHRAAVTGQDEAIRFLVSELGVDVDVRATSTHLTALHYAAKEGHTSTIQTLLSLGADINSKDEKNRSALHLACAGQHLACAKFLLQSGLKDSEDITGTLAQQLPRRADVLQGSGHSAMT
UniProt O75179: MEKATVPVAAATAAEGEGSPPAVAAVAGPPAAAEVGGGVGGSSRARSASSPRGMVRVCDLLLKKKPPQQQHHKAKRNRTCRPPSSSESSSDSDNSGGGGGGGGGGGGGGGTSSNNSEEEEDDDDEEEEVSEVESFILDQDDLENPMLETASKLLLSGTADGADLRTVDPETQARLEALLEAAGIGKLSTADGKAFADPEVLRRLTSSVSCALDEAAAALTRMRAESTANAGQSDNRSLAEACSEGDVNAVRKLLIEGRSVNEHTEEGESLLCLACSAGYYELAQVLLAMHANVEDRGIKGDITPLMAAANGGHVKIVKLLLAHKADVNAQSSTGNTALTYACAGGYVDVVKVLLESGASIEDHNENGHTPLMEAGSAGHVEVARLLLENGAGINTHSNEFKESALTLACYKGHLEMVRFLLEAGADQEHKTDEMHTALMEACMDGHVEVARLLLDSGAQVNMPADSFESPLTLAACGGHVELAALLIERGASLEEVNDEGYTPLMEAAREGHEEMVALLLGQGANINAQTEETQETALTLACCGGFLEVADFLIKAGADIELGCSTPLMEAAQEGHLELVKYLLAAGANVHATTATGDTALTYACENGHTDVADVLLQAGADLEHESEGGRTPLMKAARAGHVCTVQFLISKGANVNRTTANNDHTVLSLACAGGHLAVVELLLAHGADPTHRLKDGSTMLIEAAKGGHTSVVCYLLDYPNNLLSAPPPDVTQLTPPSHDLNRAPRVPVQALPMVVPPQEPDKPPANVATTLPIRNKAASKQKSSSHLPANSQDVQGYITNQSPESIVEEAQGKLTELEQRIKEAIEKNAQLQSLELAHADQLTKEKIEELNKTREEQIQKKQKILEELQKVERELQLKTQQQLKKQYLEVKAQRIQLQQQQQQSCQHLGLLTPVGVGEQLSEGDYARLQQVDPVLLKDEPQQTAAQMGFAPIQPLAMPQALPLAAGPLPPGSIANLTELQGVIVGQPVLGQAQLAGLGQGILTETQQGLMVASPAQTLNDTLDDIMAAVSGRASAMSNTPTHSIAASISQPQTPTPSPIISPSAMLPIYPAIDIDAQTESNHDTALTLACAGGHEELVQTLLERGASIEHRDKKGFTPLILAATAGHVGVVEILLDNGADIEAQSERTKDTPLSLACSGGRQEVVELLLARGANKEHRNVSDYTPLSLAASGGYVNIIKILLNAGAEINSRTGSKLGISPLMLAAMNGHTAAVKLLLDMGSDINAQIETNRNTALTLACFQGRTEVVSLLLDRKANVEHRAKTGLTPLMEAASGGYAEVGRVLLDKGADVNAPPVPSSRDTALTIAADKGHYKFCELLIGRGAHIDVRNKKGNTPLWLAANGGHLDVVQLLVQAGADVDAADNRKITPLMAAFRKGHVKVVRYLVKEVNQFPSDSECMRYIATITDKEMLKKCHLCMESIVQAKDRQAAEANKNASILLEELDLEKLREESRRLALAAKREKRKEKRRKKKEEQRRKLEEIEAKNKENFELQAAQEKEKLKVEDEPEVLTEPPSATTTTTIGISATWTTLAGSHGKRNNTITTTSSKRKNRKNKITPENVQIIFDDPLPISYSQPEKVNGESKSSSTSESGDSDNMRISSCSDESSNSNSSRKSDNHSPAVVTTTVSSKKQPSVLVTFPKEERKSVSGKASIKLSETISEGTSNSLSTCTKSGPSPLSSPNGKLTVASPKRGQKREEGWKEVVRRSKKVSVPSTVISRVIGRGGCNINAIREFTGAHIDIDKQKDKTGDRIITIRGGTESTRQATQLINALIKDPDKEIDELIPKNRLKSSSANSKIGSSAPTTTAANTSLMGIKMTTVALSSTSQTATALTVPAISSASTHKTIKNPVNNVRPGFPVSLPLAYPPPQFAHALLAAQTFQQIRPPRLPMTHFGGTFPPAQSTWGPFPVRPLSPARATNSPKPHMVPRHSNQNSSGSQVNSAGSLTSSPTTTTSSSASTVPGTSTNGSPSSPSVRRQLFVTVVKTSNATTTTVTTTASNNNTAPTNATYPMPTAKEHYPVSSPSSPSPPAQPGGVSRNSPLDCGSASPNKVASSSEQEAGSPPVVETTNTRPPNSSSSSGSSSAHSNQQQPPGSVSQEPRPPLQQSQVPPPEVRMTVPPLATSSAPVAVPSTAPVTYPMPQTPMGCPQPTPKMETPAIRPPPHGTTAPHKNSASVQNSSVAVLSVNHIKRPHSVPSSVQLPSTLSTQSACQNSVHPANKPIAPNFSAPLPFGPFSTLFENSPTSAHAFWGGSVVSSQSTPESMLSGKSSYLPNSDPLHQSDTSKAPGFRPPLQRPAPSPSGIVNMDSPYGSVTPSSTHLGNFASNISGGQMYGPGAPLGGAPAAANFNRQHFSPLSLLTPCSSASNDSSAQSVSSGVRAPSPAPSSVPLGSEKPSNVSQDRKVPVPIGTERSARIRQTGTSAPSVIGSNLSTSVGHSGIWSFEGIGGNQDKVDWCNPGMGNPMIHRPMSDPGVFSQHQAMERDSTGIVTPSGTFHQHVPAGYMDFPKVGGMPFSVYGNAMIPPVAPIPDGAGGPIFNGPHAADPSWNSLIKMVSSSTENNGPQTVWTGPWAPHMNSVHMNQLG
UniProt Q8IWZ3: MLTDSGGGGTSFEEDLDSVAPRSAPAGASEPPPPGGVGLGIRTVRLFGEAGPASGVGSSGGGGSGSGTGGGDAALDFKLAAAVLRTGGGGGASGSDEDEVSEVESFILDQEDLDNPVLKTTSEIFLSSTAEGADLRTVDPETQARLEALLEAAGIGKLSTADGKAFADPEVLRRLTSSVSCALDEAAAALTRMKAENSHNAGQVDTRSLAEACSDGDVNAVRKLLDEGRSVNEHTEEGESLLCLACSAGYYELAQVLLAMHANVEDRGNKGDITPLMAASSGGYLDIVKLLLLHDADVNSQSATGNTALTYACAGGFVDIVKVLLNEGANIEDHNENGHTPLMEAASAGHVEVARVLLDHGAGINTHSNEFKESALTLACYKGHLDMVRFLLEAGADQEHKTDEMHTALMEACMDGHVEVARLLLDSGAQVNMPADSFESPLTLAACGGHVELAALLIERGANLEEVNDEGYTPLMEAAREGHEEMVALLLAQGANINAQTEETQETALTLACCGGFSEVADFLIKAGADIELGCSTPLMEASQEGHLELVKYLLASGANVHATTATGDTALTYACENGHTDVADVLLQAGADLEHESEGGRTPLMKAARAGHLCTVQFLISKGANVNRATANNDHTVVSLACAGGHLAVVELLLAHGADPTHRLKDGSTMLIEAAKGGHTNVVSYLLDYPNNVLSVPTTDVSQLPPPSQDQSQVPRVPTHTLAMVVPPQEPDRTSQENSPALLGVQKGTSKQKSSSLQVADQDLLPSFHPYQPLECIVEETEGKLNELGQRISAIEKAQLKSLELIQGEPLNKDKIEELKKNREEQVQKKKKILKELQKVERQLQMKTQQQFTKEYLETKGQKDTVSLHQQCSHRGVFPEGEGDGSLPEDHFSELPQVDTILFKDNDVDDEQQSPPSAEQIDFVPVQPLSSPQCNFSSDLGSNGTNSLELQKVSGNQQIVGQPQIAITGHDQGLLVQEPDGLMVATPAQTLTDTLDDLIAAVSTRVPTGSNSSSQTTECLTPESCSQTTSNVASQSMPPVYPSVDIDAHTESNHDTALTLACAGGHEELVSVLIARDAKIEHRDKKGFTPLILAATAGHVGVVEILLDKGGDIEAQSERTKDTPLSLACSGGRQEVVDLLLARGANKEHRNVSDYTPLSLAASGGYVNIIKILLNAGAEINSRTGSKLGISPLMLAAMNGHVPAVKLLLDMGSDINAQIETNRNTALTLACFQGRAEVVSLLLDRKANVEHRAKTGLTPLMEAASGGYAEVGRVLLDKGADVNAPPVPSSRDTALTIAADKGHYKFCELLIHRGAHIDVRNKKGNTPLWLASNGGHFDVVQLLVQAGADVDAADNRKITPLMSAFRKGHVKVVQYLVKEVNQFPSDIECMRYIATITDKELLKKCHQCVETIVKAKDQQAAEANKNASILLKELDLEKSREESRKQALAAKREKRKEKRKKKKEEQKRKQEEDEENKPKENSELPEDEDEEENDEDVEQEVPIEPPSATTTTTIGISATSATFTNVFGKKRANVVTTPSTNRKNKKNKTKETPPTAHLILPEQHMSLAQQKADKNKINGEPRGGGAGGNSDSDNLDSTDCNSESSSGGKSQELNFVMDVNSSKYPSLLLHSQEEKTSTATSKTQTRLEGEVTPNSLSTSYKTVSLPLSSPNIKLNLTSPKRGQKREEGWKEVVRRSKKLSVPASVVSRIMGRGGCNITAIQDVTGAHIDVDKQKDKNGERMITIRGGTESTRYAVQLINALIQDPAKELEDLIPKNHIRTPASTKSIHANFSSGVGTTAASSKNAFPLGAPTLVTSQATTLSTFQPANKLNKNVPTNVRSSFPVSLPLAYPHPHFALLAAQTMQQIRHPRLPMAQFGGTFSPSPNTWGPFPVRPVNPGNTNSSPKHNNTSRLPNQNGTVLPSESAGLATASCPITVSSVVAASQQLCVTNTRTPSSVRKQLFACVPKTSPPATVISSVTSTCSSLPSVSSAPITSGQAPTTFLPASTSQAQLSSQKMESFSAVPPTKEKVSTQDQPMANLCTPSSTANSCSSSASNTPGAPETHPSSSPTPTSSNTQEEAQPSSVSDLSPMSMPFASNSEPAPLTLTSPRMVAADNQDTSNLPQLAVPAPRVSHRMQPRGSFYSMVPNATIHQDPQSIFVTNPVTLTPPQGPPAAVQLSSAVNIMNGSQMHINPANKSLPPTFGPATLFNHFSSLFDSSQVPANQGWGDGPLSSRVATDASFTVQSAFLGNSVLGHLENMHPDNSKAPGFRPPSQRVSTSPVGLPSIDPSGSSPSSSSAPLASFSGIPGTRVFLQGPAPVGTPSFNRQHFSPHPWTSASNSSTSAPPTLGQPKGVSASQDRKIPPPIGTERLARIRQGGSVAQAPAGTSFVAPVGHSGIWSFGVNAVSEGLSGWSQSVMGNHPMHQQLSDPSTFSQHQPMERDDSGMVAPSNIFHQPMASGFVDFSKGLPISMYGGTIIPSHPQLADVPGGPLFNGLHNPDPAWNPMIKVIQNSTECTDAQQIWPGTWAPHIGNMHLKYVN
UniProt Q9BZZ5: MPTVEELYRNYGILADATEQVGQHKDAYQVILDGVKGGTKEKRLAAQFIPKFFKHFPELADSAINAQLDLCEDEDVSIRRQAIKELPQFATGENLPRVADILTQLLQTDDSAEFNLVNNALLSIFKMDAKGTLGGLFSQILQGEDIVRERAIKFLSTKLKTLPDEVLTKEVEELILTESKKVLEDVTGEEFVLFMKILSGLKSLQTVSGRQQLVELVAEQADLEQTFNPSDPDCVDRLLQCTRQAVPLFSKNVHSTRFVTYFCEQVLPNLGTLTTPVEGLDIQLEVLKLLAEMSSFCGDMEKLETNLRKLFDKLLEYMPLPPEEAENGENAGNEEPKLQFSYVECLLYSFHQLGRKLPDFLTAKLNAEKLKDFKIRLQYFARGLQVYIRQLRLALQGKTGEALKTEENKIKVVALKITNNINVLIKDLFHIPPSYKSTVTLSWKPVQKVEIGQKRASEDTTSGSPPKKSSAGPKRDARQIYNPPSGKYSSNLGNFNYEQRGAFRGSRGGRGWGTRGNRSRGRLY

Compound: CC1Cc2ccccc2N1C(=O)C1CCCN(C1)C(=O)CCl (mixture of isomers) [TRIM25 ligand 11 (diastereomer mixture)]
Assay: probe-labelled cysteine peptide fold change vs DMSO (competition) (log2 fold change); higher = less target engagement (more negative = stronger competition)
Conditions: THP-1, incubation time: 4 h
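Note: competitive chemoproteomic profiling in live THP-1 cells with an iodoacetamide desthiobiotin (IA-DTB) probe, comparing probe-labelled peptide intensities in compound-treated cells against DMSO-treated controls.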

Row | Target | probe-labelled cysteine peptide fold change (10 µM) | probe-labelled cysteine peptide fold change (50 µM)
1 | ANKRD28_O15084_898_NTALHLACSK (UniProt O15084) | 0.0584 | 0.284
2 | ANXA11_P50995_294_GVGTDEACLIEILASR (UniProt P50995) | -0.0864 | -0.027
3 | ANP32E_Q9BTT0_87_CPNLTYLNLSGNK (UniProt Q9BTT0) | -0.0948 | -0.106
4 | ANLN_Q9NQW6_353_EICLQSQSK (UniProt Q9NQW6) | -0.116 | -0.167
5 | APAF1_O14727_8_NCLLQHR (UniProt O14727) | -0.0505 | -0.0514
6 | ANKRD16_Q6P6B7_322_SALHLACAGQHLACAK (UniProt Q6P6B7) | -0.0134 | 0.16
7 | APMAP_Q9HDC9_140_FGSGPCK (UniProt Q9HDC9) | -0.0345 | 0.017
8 | APEH_P13798_30_QPALSAACLGPEVTTQYGGQYR (UniProt P13798) | -0.0105 | 0.35
9 | AP1G2_O75843_125_NDLSQGIQPVQGLALCTLSTMGSAEMCR (UniProt O75843) | 0.0046 | -0.109
10 | ANKRD16_Q6P6B7_43_EELQAAGGCPGPAGDTLLHCAAR (UniProt Q6P6B7) | 0.132 | -0.0106
11 | ANXA11_P50995_384_FNAVLCSR (UniProt P50995) | -0.0174 | -0.0325
12 | APIP_Q96GX9_97_SQCTPLFMNAYTMR (UniProt Q96GX9) | 0.0257 | 0.00999
13 | AP3S1_Q92572_47_RDENVCNFLEGGLLIGGSDNK (UniProt Q92572) | 0.111 | 0.0336
14 | ANLN_Q9NQW6_1037_INLANCTSR (UniProt Q9NQW6) | 0.0908 | 0.0492
15 | ANKLE2_Q86XL3_674_CSAFPLEQEADLIEAAEPGGPHSSR (UniProt Q86XL3) | -0.0438 | -0.165
16 | ANKRD44_Q8N8A2_731_GIMTGHEECVQMLLEQEVSILCK (UniProt Q8N8A2) | -0.172 | -0.159
17 | ANKRD17_O75179_1158_DTPLSLACSGGR (UniProt O75179) | 0.0848 | 0.00766
18 | ANKHD1_Q8IWZ3_1716_GGCNITAIQDVTGAHIDVDK (UniProt Q8IWZ3) | 0.0838 | 0.0879
19 | AP1G1_O43747_70_LLYMHMLGYPAHFGQLECLK (UniProt O43747) | -0.0739 | 0.0302

Row | Target | probe-labelled cysteine peptide fold change (10 µM) | probe-labelled cysteine peptide fold change (50 µM)
20 | AP1B1_Q10567_866_DCPLNAEAASSK (UniProt Q10567) | -0.0509 | -0.0352
21 | ANKRD50_Q9ULJ7_442_MLAMSYTCQAK (UniProt Q9ULJ7) | -0.0145 | -0.11
22 | ANKRD54_Q6NXT1_265_LDDLCTR (UniProt Q6NXT1) | -0.0938 | -0.167
23 | AP1G1_O43747_106_QDVHLLMTNCIK (UniProt O43747) | 0.246 | 0.287
24 | ANKRD17_O75179_210_RLTSSVSCALDEAAAALTR (UniProt O75179) | 5.79e-05 | -0.0111
25 | AP3D1_O14617_39_YISQCIDEIKQELK (UniProt O14617) | -0.00769 | 0.0314
26 | ANXA4_P09525_198_FLTVLCSR (UniProt P09525) | -0.0707 | 0.0642
27 | ANXA6_P08133_552_FMTILCTR (UniProt P08133) | -0.039 | 0.00359
28 | ANKLE1_Q8NAG6_124_GLELLLSQGADPALRDQDGLRPLDLALQQGHLECAR (UniProt Q8NAG6) | -0.0578 | 0.0137
29 | ANXA7_P20073_327_LLVSMCQGNRDENQSINHQMAQEDAQR (UniProt P20073) | -0.148 | -0.299
30 | AOC1_P19801_391_YLDVGWGLGSVTHELAPGIDCPETATFLDTFHYYDADDPVHYPR (UniProt P19801) | 0.298 | 0.165
31 | APAF1_O14727_177_DHSLLEGCFPGGVHWVSVGK (UniProt O14727) | -0.0684 | -0.0879
32 | API5_Q9BZZ5_297_LLAEMSSFCGDMEK (UniProt Q9BZZ5) | 0.118 | 0.112
33 | ANXA6_P08133_114_CLIEILASR (UniProt P08133) | 0.0493 | 0.0263
34 | APOBEC3C_Q9NRW3_70+76_CFLSWFCDDILSPNTK (UniProt Q9NRW3) | 0.0461 | 0.016
35 | ANKRD50_Q9ULJ7_744_GAEVDHCDK (UniProt Q9ULJ7) | 0.159 | 0.0869
36 | ANKHD1_Q8IWZ3-6_2579_VPAGVQELTHCPDTPLLPPSDSR (UniProt Q8IWZ3) | -0.114 | -0.49
37 | ANXA6_P08133_59_QRQEVCQSYK (UniProt P08133) | 0.0235 | 0.014
38 | ANKHD1_Q8IWZ3_213_SLAEACSDGDVNAVR (UniProt Q8IWZ3) | 0.203 | 0.151

Single entries from the list.
Under probe-labelled cysteine peptide fold change (10 µM), ANKRD17_O75179_210_RLTSSVSCALDEAAAALTR (UniProt O75179) has the entry 5.79e-05
Under probe-labelled cysteine peptide fold change (10 µM), API5_Q9BZZ5_297_LLAEMSSFCGDMEK (UniProt Q9BZZ5) has the entry 0.118
